The record followed here is the supplement of paper PMC10849652.

Amino acid sequences for entries named in this document (tags omitted). A change or cut given only in a name is not applied to a line headed by its entry.
UniProt O15321, whole entry, looked up: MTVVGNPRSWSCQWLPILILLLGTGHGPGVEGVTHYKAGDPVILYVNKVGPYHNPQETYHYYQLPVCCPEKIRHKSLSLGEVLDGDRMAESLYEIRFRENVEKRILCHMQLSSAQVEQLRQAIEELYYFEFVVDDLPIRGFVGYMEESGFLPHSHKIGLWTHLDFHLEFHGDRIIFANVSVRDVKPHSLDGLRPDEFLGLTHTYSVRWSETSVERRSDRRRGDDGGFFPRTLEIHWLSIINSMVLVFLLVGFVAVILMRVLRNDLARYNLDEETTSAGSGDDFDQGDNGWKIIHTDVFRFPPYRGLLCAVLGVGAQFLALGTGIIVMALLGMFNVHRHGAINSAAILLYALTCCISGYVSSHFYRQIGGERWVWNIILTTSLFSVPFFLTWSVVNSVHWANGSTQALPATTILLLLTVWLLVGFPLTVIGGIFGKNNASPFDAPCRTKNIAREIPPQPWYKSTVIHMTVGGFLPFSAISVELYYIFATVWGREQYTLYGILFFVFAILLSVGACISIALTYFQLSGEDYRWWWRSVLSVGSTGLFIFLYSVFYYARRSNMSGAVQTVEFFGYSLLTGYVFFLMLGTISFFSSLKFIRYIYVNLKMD
UniProt Q9NVV0: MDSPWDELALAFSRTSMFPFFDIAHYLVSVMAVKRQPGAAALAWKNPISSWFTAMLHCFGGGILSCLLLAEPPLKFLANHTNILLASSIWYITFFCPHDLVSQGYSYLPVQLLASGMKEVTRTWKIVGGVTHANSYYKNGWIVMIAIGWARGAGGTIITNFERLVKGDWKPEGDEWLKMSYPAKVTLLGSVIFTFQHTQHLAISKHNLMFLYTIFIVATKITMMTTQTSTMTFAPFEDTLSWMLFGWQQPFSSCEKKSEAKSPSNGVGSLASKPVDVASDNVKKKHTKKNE
UniProt Q9UM00: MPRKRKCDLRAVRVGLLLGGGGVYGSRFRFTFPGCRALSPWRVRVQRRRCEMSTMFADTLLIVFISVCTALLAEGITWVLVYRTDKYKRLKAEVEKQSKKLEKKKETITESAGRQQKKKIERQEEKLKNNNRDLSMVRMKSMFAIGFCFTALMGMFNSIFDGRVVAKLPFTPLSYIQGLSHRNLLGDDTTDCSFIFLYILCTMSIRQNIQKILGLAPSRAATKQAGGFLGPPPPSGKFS
UniProt Q96JJ7: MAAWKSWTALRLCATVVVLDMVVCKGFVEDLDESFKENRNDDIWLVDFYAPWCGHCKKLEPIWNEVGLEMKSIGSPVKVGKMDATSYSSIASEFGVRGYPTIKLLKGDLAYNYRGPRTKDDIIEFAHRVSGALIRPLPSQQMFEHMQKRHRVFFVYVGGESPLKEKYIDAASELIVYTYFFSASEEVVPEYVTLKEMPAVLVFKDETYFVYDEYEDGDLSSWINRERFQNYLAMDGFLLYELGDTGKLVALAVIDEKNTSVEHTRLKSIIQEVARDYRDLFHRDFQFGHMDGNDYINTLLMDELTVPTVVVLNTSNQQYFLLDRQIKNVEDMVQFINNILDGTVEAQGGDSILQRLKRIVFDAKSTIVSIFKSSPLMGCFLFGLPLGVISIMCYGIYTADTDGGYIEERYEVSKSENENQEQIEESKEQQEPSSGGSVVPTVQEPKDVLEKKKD
UniProt Q96B77: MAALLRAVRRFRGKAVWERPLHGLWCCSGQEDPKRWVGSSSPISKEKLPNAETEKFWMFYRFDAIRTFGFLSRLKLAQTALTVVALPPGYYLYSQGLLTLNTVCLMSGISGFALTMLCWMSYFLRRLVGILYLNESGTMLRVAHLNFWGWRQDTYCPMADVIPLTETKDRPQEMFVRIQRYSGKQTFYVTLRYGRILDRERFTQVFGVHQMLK

Some of the results follow.

Compound in this assay: c1cn2cc(-c3ccc4cn[nH]c4c3)nc(Nc3ccc(N4CCOCC4)cc3)c2n1 [entospletinib]
In words: log2 fold change, soluble protein after heating vs DMSO (PISA); higher = thermal stabilisation; K562 cells, 10 uM, 30 min; active = over 0.2 and 3.5 SD of the protein, either way, in both replicates (recomputed). A digest of the protocol:
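Values are thermal stability changes relative to control samples and are taken from duplicates. They are stated as log2 fold changes. Before quantification by TMTpro 16plex LC-MS/MS with equalised channel sums, K562 cells at 2×10^6 cells/mL were treated with 10 μM compound for 30 min, heated in aliquots for 3 min across 48°C-58°C, pooled, extracted in PBS with 0.5% NP-40 at 4°C, and centrifuged at 21,000xg for 90 min to give the soluble supernatant.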
In the case of TM9SF1 (UniProt O15321), the log2 fold change was inactive: 0.135.

TMEM245 (UniProt Q9H330): the log2 fold change was inactive: -0.096.

For the target TMEM38B (UniProt Q9NVV0), the log2 fold change was inactive: 0.02. For TMCO1 (UniProt Q9UM00), the log2 fold change was inactive: -0.041. Regarding TMX3 (UniProt Q96JJ7), the log2 fold change is inactive: -0.007.

On to TMEM186 (UniProt Q96B77), for which the log2 fold change is inactive: -0.017.
